No constants are given. Whether binding was seen depends on the method and setting. Binding seen in cells or lysates may run through a third protein. Some entries that bind do so weakly or less than the wild type.
Tests used:
[1] = biological target: Bid (BH3-interacting domain death agonist) (mouse (endogenous in BV-2 cells, primary mixed glia and astrocytes)) (UniProt P70444); experiment: co-IP; Bid immunoprecipitated from RIPA lysates of purified wild-type and bid-/- astrocytes stimulated with LPS (100 ng/ml) for 1 and 4 h; blot for TRAF6
[2] = biological target: Bid (BH3-interacting domain death agonist) (mouse (endogenous in BV-2 cells, primary mixed glia and astrocytes)) (UniProt P70444); experiment: co-IP; Bid immunoprecipitated (5 ug antibody on Dynabeads Protein G, 100 ug protein, 2 h at room temperature) from RIPA lysates of BV-2 cells (LPS 1 ug/ml, 15 min or 1 h) and of primary mixed glia (LPS 100 ng/ml, 1 and 4 h); blot for TRAF6; controls: IgG and bid-deficient glia

The chains behind the UniProt entries cited, without tags or fusion partners.
UniProt P70444: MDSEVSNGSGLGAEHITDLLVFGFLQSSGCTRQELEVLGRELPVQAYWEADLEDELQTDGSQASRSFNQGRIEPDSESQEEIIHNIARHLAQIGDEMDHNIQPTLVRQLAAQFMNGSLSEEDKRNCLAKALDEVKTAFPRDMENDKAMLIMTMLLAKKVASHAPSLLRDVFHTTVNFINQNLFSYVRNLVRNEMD

B1: tumor necrosis factor receptor associated factor 6 (TRAF6) (protein, UniProt P70196 1-530)
chain: MSLLNCENSCGSSQSSSDCCAAMAASCSAAVKDDSVSGSASTGNLSSSFMEEIQGYDVEFDPPLESKYECPICLMALREAVQTPCGHRFCKACIIKSIRDAGHKCPVDNEILLENQLFPDNFAKREILSLTVKCPNKGCLQKMELRHLEDHQVHCEFALVNCPQCQRPFQKCQVNTHIIEDCPRRQVSCVNCAVSMAYEEKEIHDQSCPLANIICEYCGTILIREQMPNHYDLDCPTAPIPCTFSVFGCHEKMQRNHLARHLQENTQLHMRLLAQAVHNVNLALRPCDAASPSRGCRPEDPNYEETIKQLESRLVRQDHQIRELTAKMETQSMYVGELKRTIRTLEDKVAEMEAQQCNGIYIWKIGNFGMHLKSQEEERPVVIHSPGFYTGRPGYKLCMRLHLQLPTAQRCANYISLFVHTMQGEYDSHLPWPFQGTIRLTILDQSEALIRQNHEEVMDAKPELLAFQRPTIPRNPKGFGYVTFMHLEALRQGTFIKDDTLLVRCEVSTRFDMGGLRKEGFQPRSTDAGV
- binding [1]: binds
- binding [2]: binds

From article PMC4870272
